The values below come from publication PMC3320588.

By UniProt entry, the sequences of proteins in these tests, tags left out. Residues count along the entry.
UniProt P02769, residues 25-607: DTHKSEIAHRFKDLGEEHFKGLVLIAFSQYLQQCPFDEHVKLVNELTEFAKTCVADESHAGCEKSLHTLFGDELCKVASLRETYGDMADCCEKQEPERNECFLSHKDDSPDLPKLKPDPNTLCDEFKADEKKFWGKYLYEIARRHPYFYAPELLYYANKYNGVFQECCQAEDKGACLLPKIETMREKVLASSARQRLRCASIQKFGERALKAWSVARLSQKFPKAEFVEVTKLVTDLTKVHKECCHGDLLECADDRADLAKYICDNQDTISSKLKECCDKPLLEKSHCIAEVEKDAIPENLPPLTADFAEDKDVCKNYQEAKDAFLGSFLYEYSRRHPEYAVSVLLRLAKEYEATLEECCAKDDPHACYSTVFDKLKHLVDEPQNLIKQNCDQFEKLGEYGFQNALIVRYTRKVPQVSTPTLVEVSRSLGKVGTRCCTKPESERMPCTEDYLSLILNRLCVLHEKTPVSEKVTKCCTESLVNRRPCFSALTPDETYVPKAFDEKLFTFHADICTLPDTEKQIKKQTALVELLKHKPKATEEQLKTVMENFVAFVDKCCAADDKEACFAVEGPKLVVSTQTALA

No constants are given. Whether binding was seen depends on the method and setting. Sequences can lack the tags named with a protein.

The experiment addresses bovine serum albumin coated onto red fluorescent beads (bovine) (UniProt P02769). Put plainly: bead-bead aggregation assay; green fluorescent beads coated with flagella or Tfp mixed with red fluorescent beads coated with BSA, rotary shaker 50 rpm, 2 h, ddH2O; fraction of mixed (yellow) aggregates by confocal microscopy; both purified.

B1: flagella isolated by shearing from P. aeruginosa PAO1ΔpilA, coated onto green fluorescent beads (protein, UniProt P72151 1-488)
chain: MALTVNTNIASLNTQRNLNASSNDLNTSLQRLTTGYRINSAKDDAAGLQISNRLSNQISGLNVATRNANDGISLAQTAEGALQQSTNILQRIRDLALQSANGSNSDADRAALQKEVAAQQAELTRISDTTTFGGRKLLDGSFGTTSFQVGSNAYETIDISLQNASASAIGSYQVGSNGAGTVASVAGTATASGIASGTVNLVGGGQVKNIAIAAGDSAKAIAEKMDGAIPNLSARARTVFTADVSGVTGGSLNFDVTVGSNTVSLAGVTSTQDLADQLNSNSSKLGITASINDKGVLTITSATGENVKFGAQTGTATAGQVAVKVQGSDGKFEAAAKNVVAAGTAATTTIVTGYVQLNSPTAYSVSGTGTQASQVFGNASAAQKSSVASVDISTADGAQNAIAVVDNALAAIDAQRADLGAVQNRFKNTIDNLTNISENATNARSRIKDTDFAAETAALSKNQVLQQAGTAILAQANQLPQAVLSLLR
Take B1: the binding result was “no binding”.
